Measured values published in PMC3709506.
These are yes or no findings as the source states them, for the method shown. Some entries that bind do so weakly or less than the wild type.

By UniProt entry, the sequences of proteins in these tests, tags left out.
UniProt P69447: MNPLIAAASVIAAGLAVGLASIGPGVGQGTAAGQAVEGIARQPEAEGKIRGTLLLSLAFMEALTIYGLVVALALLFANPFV

Biological target: chloroplast ATP synthase (cATPase) subunit III, membrane ring (III)14 (Spinacia oleracea) (UniProt P69447)
Assay: native MS; intact cATPase from n-dodecyl-β-D-maltopyranoside buffer exchanged into 200 mM ammonium acetate; micelle stripped by gas-phase activation (collision energy 100-200 V); complexes formed in solution and gas-phase dissociation products assigned with Massign; both purified

binding: binds
Substance: chloroplast ATP synthase (cATPase) subunit III, membrane ring (III)14 (from UniProt P69447 1-81)
